Laboratory results from paper doi:10.1101/2024.04.10.588880.
These are yes or no findings as the source states them, for the method shown. Binding seen in cells or lysates may run through a third protein. Some results given as binding are weak or reduced against the parent protein; the word gives no strength. Where a sequence is shown, tags or fusion partners need not be part of it.

The chains behind the UniProt entries cited, without tags or fusion partners.
UniProt Q6XZF7: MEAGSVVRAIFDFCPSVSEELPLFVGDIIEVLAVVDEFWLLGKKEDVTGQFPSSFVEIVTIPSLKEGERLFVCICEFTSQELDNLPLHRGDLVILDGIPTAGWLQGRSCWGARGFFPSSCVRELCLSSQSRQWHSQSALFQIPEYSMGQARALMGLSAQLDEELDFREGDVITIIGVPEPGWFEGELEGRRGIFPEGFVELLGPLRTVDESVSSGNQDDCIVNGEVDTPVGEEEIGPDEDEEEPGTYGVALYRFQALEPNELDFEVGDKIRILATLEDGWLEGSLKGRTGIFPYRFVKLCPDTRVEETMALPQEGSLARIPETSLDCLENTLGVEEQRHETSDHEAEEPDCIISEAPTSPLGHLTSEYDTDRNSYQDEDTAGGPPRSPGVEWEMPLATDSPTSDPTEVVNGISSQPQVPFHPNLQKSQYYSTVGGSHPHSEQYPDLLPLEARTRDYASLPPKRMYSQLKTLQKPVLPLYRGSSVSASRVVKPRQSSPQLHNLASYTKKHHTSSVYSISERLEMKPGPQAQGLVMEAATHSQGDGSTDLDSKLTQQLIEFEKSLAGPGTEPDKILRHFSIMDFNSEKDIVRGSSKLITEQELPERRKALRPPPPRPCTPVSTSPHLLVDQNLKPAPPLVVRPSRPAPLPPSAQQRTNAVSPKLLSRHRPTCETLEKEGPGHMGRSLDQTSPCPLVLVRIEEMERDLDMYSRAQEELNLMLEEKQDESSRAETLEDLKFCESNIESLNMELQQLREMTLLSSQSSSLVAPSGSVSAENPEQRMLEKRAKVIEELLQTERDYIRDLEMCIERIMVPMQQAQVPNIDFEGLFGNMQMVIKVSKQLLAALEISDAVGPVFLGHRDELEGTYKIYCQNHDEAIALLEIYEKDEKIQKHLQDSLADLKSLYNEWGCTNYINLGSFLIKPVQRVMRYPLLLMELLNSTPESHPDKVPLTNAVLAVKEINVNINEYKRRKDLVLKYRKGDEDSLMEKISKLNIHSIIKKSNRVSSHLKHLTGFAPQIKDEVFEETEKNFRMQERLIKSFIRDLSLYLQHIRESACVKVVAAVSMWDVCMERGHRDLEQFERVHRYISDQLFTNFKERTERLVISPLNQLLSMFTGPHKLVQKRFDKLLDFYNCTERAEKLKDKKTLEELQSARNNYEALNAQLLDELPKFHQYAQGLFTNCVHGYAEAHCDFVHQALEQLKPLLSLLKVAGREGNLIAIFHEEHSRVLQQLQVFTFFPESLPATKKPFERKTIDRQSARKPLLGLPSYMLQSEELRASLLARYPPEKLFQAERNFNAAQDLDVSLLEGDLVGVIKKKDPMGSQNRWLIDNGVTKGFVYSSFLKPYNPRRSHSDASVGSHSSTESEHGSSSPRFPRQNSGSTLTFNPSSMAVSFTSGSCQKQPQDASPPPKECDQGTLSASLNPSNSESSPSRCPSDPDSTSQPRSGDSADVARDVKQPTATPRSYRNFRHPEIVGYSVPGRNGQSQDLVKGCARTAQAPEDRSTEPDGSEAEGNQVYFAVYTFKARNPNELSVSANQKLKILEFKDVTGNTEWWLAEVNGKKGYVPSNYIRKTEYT

Target: T1, GST-tagged wild-type (WT) Dynamin 2 (rat) (UniProt P39052)
T1 sequence: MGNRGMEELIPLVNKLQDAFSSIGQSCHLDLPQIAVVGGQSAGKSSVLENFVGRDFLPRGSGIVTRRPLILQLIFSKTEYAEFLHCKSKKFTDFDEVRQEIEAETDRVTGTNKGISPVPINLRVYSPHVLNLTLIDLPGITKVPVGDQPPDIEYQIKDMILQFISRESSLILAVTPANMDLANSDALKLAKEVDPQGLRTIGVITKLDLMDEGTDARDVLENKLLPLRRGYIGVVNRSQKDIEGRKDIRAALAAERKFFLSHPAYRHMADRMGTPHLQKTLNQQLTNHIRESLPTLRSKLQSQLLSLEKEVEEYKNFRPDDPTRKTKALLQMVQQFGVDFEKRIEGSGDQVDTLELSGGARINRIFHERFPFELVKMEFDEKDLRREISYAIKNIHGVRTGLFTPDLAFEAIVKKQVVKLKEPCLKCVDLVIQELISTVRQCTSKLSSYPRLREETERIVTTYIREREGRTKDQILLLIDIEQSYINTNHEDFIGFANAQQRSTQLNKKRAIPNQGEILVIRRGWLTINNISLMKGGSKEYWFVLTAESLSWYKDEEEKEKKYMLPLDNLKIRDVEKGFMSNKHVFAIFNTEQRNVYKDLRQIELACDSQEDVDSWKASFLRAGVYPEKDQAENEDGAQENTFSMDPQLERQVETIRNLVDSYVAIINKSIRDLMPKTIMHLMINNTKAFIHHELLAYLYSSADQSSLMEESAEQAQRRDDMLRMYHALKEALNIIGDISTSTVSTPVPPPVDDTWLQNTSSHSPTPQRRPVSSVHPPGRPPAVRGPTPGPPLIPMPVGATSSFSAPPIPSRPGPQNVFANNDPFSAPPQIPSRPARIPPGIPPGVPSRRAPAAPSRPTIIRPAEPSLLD
Experiment: pull-down

binding: binds
Substance: Tuba isoform 1 (endogenous, Caco-2 BBE1 cells) (from UniProt Q6XZF7 1-1577)
